For 1 sequence, binding signal results are on record in publication PMC5996148.

Values joined by “and” are separate entries in the source; they are usually repeats but may differ in a detail not shown here. Equal values may be shown once. This is one part of the list.

What all share (assay): protein microarray (ProtoArray v5.0), streptavidin-Alexa Fluor 647
Holding throughout (settings): 3'-biotin; 20 mM Tris (pH 7.5), 5 mM MgCl2, 100 mM KCl, 0.1% Tween-20, A/T-rich and random oligonucleotide blockers; temperature not stated; high values mean tight binding

For assay [1], the system named is Coiled-coil domain-containing protein 115 (human).
Assay [2] has as its system Coiled-coil domain-containing protein 28A (human).
The test system of assay [3] is Coiled-coil domain-containing transmembrane protein C7orf53 (human).
The test system of assay [4] is Copper chaperone for superoxide dismutase (human).
Another assay has as its system Cyclin-Y (human).
Assay [5] relates to Cyclin-dependent kinase-like 3 (human).
The test system of assay [6] is Cystathionine beta-synthase (human).
For assay [7], the system named is Cysteine dioxygenase type 1 (human).
In assay [8] the test system is Cytochrome b-c1 complex subunit 6, mitochondrial (human).
A further assay concerns Cytoglobin (human).

For “GGTGACAGGGGTATGGGGAGGGG [G4-2 biotinylated (Ct1)]”, the binding signal in assay [1] is -0.386 z-score; in assay [2] it was 6.78 z-score; in assay [3], -0.377 z-score; in assay [4], -0.384 z-score; in the assay with Cyclin-Y (human) it was -0.39 z-score; in assay [5], 6.29 z-score. The binding signal in assay [6] is -0.4 z-score; in [7] it was -0.37 z-score and -0.383 z-score; in assay [8], -0.381 z-score; in the assay with Cytoglobin (human) it was -0.397 z-score.
